This is an account of results in patent KR20140086355A, “콜치신 유도체를 유효성분으로 포함하는 암의 예방 또는 치료용 조성물” (한국화학연구원, priority 2012, dated 2014).

Experiment [1] deals with human colorectal cancer cells HCT116 [인간 대장암 세포, HCT116]. As to the kind of experiment: alamarBlue cell proliferation assay, human colorectal cancer cells HCT116. In kind it is cell-based. As to conditions: HCT-116. (In general: Resazurin is reduced to fluorescent resorufin, in cell work by metabolically active cells.)
The next experiment has as its system PLK-1. Briefly: Western blot of Plk-1 in HCT116 cells. In kind it is cell-based. The following applies: Western blot of selected compounds, HCT116 (Fig. 2: 1μM, 48 h; Fig. 8). Background: A western blot detects proteins with antibodies after separation by electrophoresis.

As usually defined, the IC50 is the concentration that gives 50% inhibition. Read a low IC50 as greater potency. For the molecule `COc1cc2c(c(OC)c1OC)-c1ccc(OC)c(=O)cc1[C@@H](NC(C)=O)CC2` [H11-G04, Colchicine], the IC50 in experiment [1] (Table 1, inhibition of human colorectal cancer cell proliferation, 48 h) is 4 µM; in experiment [1] (Homo sapiens, Table 2, structures and activity of colchicine derivatives), 4 µM. The “Plk-1 inhibition in selection of screened compounds” value with PLK-1 is reported as “Plk-1을 억제하고”.
